# Measurements from patent US11786471B2, “Complex disintegrant system for oral solid preparation and oral solid preparation comprising said complex disintegrant system” (WUHAN LL SCIENCE AND TECHNOLOGY DEVELOPMENT CO., LTD., priority 2016, dated 2023).
# Some of these results come from one statement about several compounds together.
# Tested on: spontaneously hypertensive rats
# Assay: Antihypertensive efficacy test in spontaneously hypertensive rats: systolic blood pressure change
# Assay type: in vivo, rat
# Conditions: SHR, intragastric, 1 mg/kg
# Description: 12-week-old spontaneously hypertensive rats (hereinafter referred to as SHR, purchased from Beijing Weitong Lihua Experimental Animal Technology Co., Ltd.) were anesthetized with 2.5% sodium pentobarbital for intraperitoneal injection. After that, the blood pressure sensing catheter of hypertension implant was inserted into their abdominal aorta, while the implant was fixed to the abdominal wall, and then postoperative daily care was performed after suturing. Rats with systolic blood pressure exceeding 160 mm Hg were divided into 3 groups (control group, QR01019 group and QR01019K group) wherein each group has 8 rats. The control group was administrated 0.5% sodium carboxymethylcellulose (hereinafter referred to as CMC-Na); QR01019 group and QR01019K group were respectively administered, both of which were dissolved by 0.5% CMC-Na, by intragastric administration, at a dose of 1 mg/kg (calculated by the effective dose of Azilsartan) and a volume calculated by 4 mL/kg. The systolic blood pressure and heart rate of SHR were compared before and after administration (the systolic blood pressure and heart rate of SHR before administration as reference value), which were detected three times at each time point with the average value recorded.
smiles,measurement,value
CCOc1nc2cccc(C(=O)OC(C)OC(=O)OCc3nc(C)c(C)nc3C)c2n1Cc1ccc(-c2ccccc2-c2noc(=O)[n-]2)cc1.[K+] (stereo not shown) [QR01019K],time at which drug efficacy (systolic blood pressure decrease) peaks after administration,5 to 7 h
